Experimental data taken from paper PMC6925144, “A prospective compound screening contest identified broader inhibitors for Sirtuin 1” (Scientific Reports, 2019).
In all, about 3,200 compounds were measured (“TSA(without NAD+) / Primary screening (TSA) / delta Tm (K)”: median about -0.07, highest 2% from about 0.37 on). The list shows a part of the results.

Sequences of proteins named here, by UniProt entry; tags and fusion partners are left off. Residues count along the entry.
UniProt Q96EB6, 2-747 limits assumed: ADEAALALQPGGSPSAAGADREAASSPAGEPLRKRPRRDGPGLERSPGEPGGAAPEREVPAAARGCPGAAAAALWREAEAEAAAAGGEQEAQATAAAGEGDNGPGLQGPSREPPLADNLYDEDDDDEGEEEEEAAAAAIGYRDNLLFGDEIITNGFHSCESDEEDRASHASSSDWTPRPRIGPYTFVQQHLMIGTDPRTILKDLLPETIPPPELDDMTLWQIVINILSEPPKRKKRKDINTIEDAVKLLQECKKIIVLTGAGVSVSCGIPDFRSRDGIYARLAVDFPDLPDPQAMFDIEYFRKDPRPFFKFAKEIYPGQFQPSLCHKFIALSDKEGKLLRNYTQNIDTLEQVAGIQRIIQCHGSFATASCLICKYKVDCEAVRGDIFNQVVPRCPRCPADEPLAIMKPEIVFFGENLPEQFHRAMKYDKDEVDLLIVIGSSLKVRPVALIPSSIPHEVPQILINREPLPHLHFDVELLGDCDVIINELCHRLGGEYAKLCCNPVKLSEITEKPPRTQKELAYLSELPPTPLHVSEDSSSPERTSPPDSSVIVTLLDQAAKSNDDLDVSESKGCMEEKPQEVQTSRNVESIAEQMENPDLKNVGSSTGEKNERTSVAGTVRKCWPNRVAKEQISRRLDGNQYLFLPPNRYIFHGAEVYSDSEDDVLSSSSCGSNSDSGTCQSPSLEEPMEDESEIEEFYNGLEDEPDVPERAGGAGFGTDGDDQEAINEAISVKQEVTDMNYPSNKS

target: NAD-dependent deacetylase Sirtuin 1 (human, UniProt Q96EB6); assay: primary screen, delta tm; set-up: single well (n = 1); conditions: 10 µM
Summary of the method: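 Thermal shift of Sirtuin 1 measured without NAD+, compound at 10 µM (n = 1); value is ΔTm, with hits defined as ΔTm > 0.45 K or < −1.5 K. Hits retested at 5, 10, 20 µM (n = 4) and counterscreened on bovine carbonic anhydrase and ABL1 SH2 domain.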

Row | Compound | TSA(without NAD+) / Primary screening (TSA) / delta Tm (K)
1 | CC(N)c1nnn[nH]1 (stereo not drawn) | -0.18
2 | O=C1NCCN(C(=O)c2ccon2)C1c1ccc(C(F)(F)F)cc1 (stereo not drawn) | -0.14
3 | CCc1ccc(-c2nn(-c3ccccc3)cc2C=C2C(=O)NC(=O)NC2=O)cc1 | -0.62
4 | CNC(=O)C(C)CN(C)c1ccc(C(F)(F)F)c(C#N)c1 (stereo not drawn) | -0.28
5 | O=C(Nc1ccccc1)C1CCN(C(=O)c2cc(-c3ccc(O)cc3)nc3ccccc23)CC1 | 0.08
6 | Cc1cc(C=C2C(=O)NC(=S)NC2=O)c(C)n1-c1cccc(C(F)(F)F)c1 | -0.64
7 | OC(COc1c(Cl)cccc1Cl)Cn1nnc(-c2cccnc2)n1 (stereo not drawn) | -0.02
8 | CN(c1ccccc1)S(=O)(=O)c1cccc(/N=C2/C(=O)Nc3ccc(Br)cc32)c1 | -0.92
9 | COc1ccc(C(=O)O)cc1S(=O)(=O)Nc1cc(C(N)=O)cc(C(N)=O)c1 | -0.03
10 | CC(C)OCc1ccc(C(=O)Nc2ccc(N3CCN(Cc4ccccc4)CC3)cc2)cc1 | -0.18
11 | COc1ccc(C)cc1-n1ccc(C(=O)N2CCCc3c(C(N)=O)cccc32)n1 | -0.02
12 | Cc1oc2nc[nH]c(=O)c2c1C(=O)OC(C)C(=O)N1CCOCC1 (stereo not drawn) | -0.12
13 | O=C(Nc1cccc(S(=O)(=O)N2CCOCC2)c1)c1cccc(S(=O)(=O)N2CCc3ccccc32)c1 | 0.37
14 | Cc1cccc(N/C=C(/C(=O)c2ccccc2)C(=O)C(F)(F)F)c1 | -0.11
15 | Cn1c(-c2ccccc2)c(C(=O)O)c2ccccc21 | 0.16
16 | NC(=O)C1CCN(CCCNC(=O)Nc2cccc(N3CCNC3=O)c2)CC1 | -0.08
17 | CCOCC(C)N (stereo not drawn) | -0.24
18 | O=C(CC(=O)N/N=C/c1ccc(O)cc1O)N/N=C/c1ccc(O)cc1O | 0.15
19 | Cc1cccc(NC(=O)CN2CCN(C(=O)c3ccccc3C(=O)c3ccccc3)CC2)c1C | -0.07

Row | Compound | TSA(without NAD+) / Primary screening (TSA) / delta Tm (K)
20 | CCCOc1ccc(C(=O)C2=C(O)C(=O)N(CCCN3CCOCC3)C2c2ccccn2)cc1 (stereo not drawn) | 0.03
21 | COc1ccc(N(C)S(=O)(=O)c2cccc(C(=O)OCCCC(=O)c3ccc(F)cc3)c2)cc1 | 0.06
22 | COc1ccc(C(=O)C2=C(O)C(=O)N(CCCN3CCOCC3)C2c2ccccc2F)cc1 (stereo not drawn) | 0.02
23 | NC(=S)c1ccc(C(=O)NCc2ccnc(OCC(F)(F)F)c2)cc1 | -0.18
24 | COc1ccc(NC(=O)COC(=O)c2ccccc2SCC(=O)NC23CC4CC(CC(C4)C2)C3)cc1OC | -0.22
25 | Cc1c(-c2ccccc2)oc2c(C(=O)OCC(=O)NC34CC5CC(CC(C5)C3)C4)cccc2c1=O | -0.07
26 | COc1ccc(CNCc2c[nH]nc2-c2ccc(C)cc2)cc1OC | -0.33
27 | NCCC[C@H](N)C(=O)O | -0.22
28 | CN(c1ccc(F)cc1)S(=O)(=O)c1cccc(-c2nnnn2C)c1 | 0.07
29 | O=C(OCc1cccc2ccccc12)C1CCCCN1c1ncccn1 (stereo not drawn) | -0.13
30 | O=C(C1=C(O)C(=O)N(CCCN2CCOCC2)C1c1cccc([N+](=O)[O-])c1)c1ccco1 (stereo not drawn) | -0.04
31 | CCCN(CC)CCN | 0.05
32 | NC(=O)c1ccc(COC(=O)c2ccccc2-c2ncc(-c3ccccc3)o2)cc1 | -0.12
33 | CC(=O)c1cccc(NC(=O)c2ccc(CCNS(C)(=O)=O)s2)c1 | -0.13
34 | CC(C)Oc1ccc(C2C(C(=O)c3ccco3)=C(O)C(=O)N2CCCN2CCOCC2)cc1 (stereo not drawn) | -0.02
35 | C=CCOCCN | -0.27
36 | CC(OC(=O)C1CC(=O)N(Cc2ccco2)C1)C(=O)Nc1ccc(C(N)=O)cc1 (stereo not drawn) | 0.06
37 | CC(C)C(NC(=O)c1cnsn1)c1cccs1 (stereo not drawn) | -0.11
38 | Cc1c(C=C2C(=O)NC(=S)NC2=O)cnn1-c1ccccc1 | -0.07

Row | Compound | TSA(without NAD+) / Primary screening (TSA) / delta Tm (K)
39 | Cc1nn(-c2cccc(C(F)(F)F)c2)c(C)c1C(=O)C(=O)N1CCNC(=O)C1 | -0.01
40 | Cn1c(SCCc2ccccc2)nc2ccsc2c1=O | -0.33
41 | O=C(COC(=O)C1=COCCO1)Nc1cccc2ccccc12 | -0.08
42 | CCN(CC)c1ccc(NC(=O)CN2CCCC2C(=O)N(C)C)cc1 (stereo not drawn) | -0.14
43 | Cc1ccc(N(C)S(=O)(=O)c2cccc(C(=O)Oc3ccc4oc5ccccc5c4c3)c2)cc1 | -0.01
44 | Cn1ccnc1C(NC(=O)c1ccc(O)c(Cl)c1)c1ccccc1F (stereo not drawn) | -0.23
45 | O=C(C1=C(O)C(=O)N(CCN2CCOCC2)C1c1ccco1)c1ccco1 (stereo not drawn) | -0.15
46 | O=C(CCc1c[nH]c2ccccc12)N1CCCC(c2nc3ccccc3[nH]2)C1 (stereo not drawn) | 0.02
47 | Cc1ccc(N(C)S(=O)(=O)c2cccc(C(=O)OCc3cc(=O)oc4c(C)c(C)ccc34)c2)cc1 | -0.38
48 | COc1ccc(-n2ccc(C(=O)Nc3ccc4nc[nH]c(=O)c4c3)n2)cc1 | 0.12
49 | C=Cn1c(N)c(C(=O)OCC)sc1=S | -0.18
50 | N#Cc1ccc(CN2CCN(CC(=O)Nc3cc(Cl)ccc3-n3cncn3)CC2)cc1 | -0.07
51 | Cc1ccc(CN(CCc2ccccc2)C(=O)Cc2c(C)nc(-c3ccccn3)[nH]c2=O)s1 | 0.18
52 | O=c1c2ccncc2ncn1CC(O)c1cccc(F)c1 (stereo not drawn) | -0.15
53 | COc1ccc(C(N)=O)cc1NC(=O)c1ccccc1-c1nc(C(C)C)no1 | -0.14
54 | O=C1COc2ccc(C(=O)CSc3nc(-c4ccccc4)c(-c4ccccc4)o3)cc2N1 | -0.03
55 | COc1cccc(NC(=O)COc2ccc(C(=O)OCC(=O)NCCC3=CCCCC3)cc2)c1 | -0.21
56 | Cc1ccc(N(C)S(=O)(=O)c2cccc(C(=O)Nc3sccc3C(N)=O)c2)cc1 | 0.17
57 | CCOc1ccc(C2C(C(=O)c3ccc(OC)cc3)=C(O)C(=O)N2CCCN2CCOCC2)cc1 (stereo not drawn) | 0.12

Some of these compounds in order of heavy-atom count, rising:
Row | Compound | TSA(without NAD+) / Primary screening (TSA) / delta Tm (K)
49 | C=Cn1c(N)c(C(=O)OCC)sc1=S | -0.18
40 | Cn1c(SCCc2ccccc2)nc2ccsc2c1=O | -0.33
52 | O=c1c2ccncc2ncn1CC(O)c1cccc(F)c1 (stereo not drawn) | -0.15
41 | O=C(COC(=O)C1=COCCO1)Nc1cccc2ccccc12 | -0.08
42 | CCN(CC)c1ccc(NC(=O)CN2CCCC2C(=O)N(C)C)cc1 (stereo not drawn) | -0.14
45 | O=C(C1=C(O)C(=O)N(CCN2CCOCC2)C1c1ccco1)c1ccco1 (stereo not drawn) | -0.15
46 | O=C(CCc1c[nH]c2ccccc12)N1CCCC(c2nc3ccccc3[nH]2)C1 (stereo not drawn) | 0.02
56 | Cc1ccc(N(C)S(=O)(=O)c2cccc(C(=O)Nc3sccc3C(N)=O)c2)cc1 | 0.17
50 | N#Cc1ccc(CN2CCN(CC(=O)Nc3cc(Cl)ccc3-n3cncn3)CC2)cc1 | -0.07
54 | O=C1COc2ccc(C(=O)CSc3nc(-c4ccccc4)c(-c4ccccc4)o3)cc2N1 | -0.03
51 | Cc1ccc(CN(CCc2ccccc2)C(=O)Cc2c(C)nc(-c3ccccn3)[nH]c2=O)s1 | 0.18
55 | COc1cccc(NC(=O)COc2ccc(C(=O)OCC(=O)NCCC3=CCCCC3)cc2)c1 | -0.21
47 | Cc1ccc(N(C)S(=O)(=O)c2cccc(C(=O)OCc3cc(=O)oc4c(C)c(C)ccc34)c2)cc1 | -0.38
